PubChem BioAssay AID1259254, NCATS, 2017
The deposit covers about 59,000 reagents; shown is a part drawn at random. Of all reagents, about 1,550 (2.6%) are marked active. 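G2 share is only a proxy for re-replication; each gene was hit by three separate siRNAs, and active genes were retested.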 Reagents against one gene are numbered here. Further read-outs or replicates are left out here. Not given: the amount of reagent.

Screen: 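Genome-wide screen for genes that prevent DNA re-replication in cancer cells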 (primary screen)
Cell system: human HCT116 colorectal cancer cells
Knock-down reagent: single siRNA against human genes
Time to read-out: 3 days
Read-out: 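Nuclei stained with Hoechst and imaged; cell-cycle phase assigned by DNA content; G2 share scaled per plate, non-targeting siRNA 0%, GMNN siRNA 100%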
Reading the numbers: G2 robust z-score: higher = more G2 cells, more excess DNA replication
Active means: 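An siRNA counts as active if its G2 robust z-score lies at least 5 MADs above the screen median; here such calls match roughly 38% of GMNN control or more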

Against ZNF41 #1, the entry reads G2 robust z-score -0.211; inactive. ZNF41 #2 gave G2 robust z-score 0.142; inactive. After knock-down of ZNF41 #3, the record shows G2 robust z-score -0.471; inactive. Knock-down of DRD3 #1 came out at: G2 robust z-score -0.258; inactive. After knock-down of DRD3 #2, the record shows G2 robust z-score 0.53; inactive. Against DRD3 #3 the deposit lists G2 robust z-score -0.638; inactive.

ZNF799 #1 scored G2 robust z-score 0.9; inactive. ZNF799 #2 scored G2 robust z-score -0.268; inactive. Depletion of ZNF799 #3 came out at: G2 robust z-score 2.31; inactive. KLHL27 #1 showed G2 robust z-score -1.01; inactive. Depletion of KLHL27 #2 resulted in: G2 robust z-score -0.607; inactive. After knock-down of KLHL27 #3, the record shows G2 robust z-score -0.482; inactive.

RASGRP4 #1 showed G2 robust z-score 2; inactive. Against RASGRP4 #2 the deposit lists G2 robust z-score -0.738; inactive. With knock-down of RASGRP4 #3 the results were G2 robust z-score 1.16; inactive. GGT1 #1 scored G2 robust z-score -0.586; inactive. GGT1 #2 gave G2 robust z-score -0.154; inactive. After knock-down of GGT1 #3, the screen gave G2 robust z-score -0.878; inactive.

Look-ups from the entries so far.
ZNF41 #3, G2 robust z-score → -0.471
Entry for GGT1 #2 under “Outcome”: inactive
